Results are given in words; binding and its absence hold for the method and conditions named.
What was measured:
[1] = target: ACVR2A with Fc-His tags (human) (UniProt P27037); assay: SPR; ~400 RU wild-type or mutant ACVR2B or ACVR2A with Fc-His tags amine-coupled on CM5; DLK1 ECD or DLK1 EGF5-6 as analyte; HBS with 0.005% P20 and 0.1% BSA, 20 °C; steady state, 1:1 Langmuir model; reference: Tim-3; both purified
[2] = target: Notch1(EGF1-36) (amino acids 20-1426) (human) (UniProt P46531); assay: condition: concentrations greater than 10 micromolar; SPR; ~300 RU biotinylated NOTCH1(EGF1-36) on a streptavidin chip; DLL4(N-5) or DLK1 ECD as analyte; HBS-P20-BSA with 1 mM CaCl2; reference: ZNRF3 ECD; both purified

Sequences of proteins named here, by UniProt entry; tags and fusion partners are left off. Residues count along the entry.
UniProt P27037: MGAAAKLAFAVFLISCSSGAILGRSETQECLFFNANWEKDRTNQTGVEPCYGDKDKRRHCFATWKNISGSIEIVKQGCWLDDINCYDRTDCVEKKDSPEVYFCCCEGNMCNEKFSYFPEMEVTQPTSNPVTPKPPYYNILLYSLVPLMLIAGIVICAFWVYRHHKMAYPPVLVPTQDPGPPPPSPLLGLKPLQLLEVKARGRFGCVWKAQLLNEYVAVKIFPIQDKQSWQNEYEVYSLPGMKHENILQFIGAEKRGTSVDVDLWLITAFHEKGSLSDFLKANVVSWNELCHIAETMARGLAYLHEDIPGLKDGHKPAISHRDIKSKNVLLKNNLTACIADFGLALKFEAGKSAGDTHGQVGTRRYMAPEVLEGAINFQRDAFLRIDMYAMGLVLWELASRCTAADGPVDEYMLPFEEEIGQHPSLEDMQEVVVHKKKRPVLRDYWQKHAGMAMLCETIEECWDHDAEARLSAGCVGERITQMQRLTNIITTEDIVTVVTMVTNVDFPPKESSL
UniProt P46531, residues 20-1426: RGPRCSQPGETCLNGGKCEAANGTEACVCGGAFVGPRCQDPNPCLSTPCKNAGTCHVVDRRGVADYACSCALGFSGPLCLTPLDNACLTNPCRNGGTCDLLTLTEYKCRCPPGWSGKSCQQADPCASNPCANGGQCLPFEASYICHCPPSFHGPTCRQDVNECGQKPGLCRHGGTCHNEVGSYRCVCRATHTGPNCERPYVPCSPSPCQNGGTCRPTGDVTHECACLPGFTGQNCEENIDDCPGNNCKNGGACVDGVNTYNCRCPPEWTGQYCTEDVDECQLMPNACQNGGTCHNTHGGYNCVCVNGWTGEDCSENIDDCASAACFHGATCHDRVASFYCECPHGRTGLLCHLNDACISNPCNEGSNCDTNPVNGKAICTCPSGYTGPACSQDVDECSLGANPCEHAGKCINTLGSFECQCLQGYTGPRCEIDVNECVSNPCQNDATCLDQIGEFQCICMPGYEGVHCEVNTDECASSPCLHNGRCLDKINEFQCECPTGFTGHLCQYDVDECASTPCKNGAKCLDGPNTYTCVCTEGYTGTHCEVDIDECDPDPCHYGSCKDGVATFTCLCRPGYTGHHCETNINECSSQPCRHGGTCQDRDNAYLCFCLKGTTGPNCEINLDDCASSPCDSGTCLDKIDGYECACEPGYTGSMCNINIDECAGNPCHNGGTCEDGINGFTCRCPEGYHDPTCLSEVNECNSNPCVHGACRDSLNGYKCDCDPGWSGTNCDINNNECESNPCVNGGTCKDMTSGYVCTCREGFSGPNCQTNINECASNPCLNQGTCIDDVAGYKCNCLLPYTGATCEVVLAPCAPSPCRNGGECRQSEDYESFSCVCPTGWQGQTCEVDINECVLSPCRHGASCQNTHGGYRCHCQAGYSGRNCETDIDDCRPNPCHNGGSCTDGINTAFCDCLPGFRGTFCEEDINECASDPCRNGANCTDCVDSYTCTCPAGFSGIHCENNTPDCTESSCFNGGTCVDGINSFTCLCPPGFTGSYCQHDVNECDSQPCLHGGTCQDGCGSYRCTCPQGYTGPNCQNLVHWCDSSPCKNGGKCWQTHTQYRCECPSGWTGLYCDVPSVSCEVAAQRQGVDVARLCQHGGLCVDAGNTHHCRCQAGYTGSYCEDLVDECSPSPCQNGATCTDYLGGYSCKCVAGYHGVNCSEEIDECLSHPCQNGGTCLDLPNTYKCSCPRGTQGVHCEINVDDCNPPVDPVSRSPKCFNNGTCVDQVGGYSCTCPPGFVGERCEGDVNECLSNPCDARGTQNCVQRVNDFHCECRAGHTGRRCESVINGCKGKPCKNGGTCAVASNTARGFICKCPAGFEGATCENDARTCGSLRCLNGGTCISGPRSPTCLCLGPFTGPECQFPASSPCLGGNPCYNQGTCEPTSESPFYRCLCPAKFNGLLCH
UniProt P80370, residues 24-260: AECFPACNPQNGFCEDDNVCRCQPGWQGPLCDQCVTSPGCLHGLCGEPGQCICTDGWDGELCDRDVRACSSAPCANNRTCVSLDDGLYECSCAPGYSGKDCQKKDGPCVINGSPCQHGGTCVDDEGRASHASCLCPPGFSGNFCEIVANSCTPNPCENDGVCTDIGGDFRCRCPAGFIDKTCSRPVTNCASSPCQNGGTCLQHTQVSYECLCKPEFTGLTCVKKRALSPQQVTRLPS

## Human DLK1(ECD) (amino acids 24-260) (from UniProt P80370 24-260) (domain or fragment)
[1]
  binding: no binding
[2]
  binding: no binding

From article PMC12216052
